These are yes or no findings as the source states them, for the method shown. In cells and extracts the contact can be indirect. Some results given as binding are weak or reduced against the parent protein; the word gives no strength. Where a sequence is shown, tags or fusion partners need not be part of it.
Target: TANGO2 isoform 1, Flag-tagged and mScarlet-tagged copies co-expressed in HepG2 cells (human) (UniProt Q6ICL3)
Experiment: co-IP; HepG2 cells cotransfected with TANGO2.Flag and TANGO2.mScarlet, 48 h; lysis in 50 mM Tris-HCl, 50 mM NaCl, 1% Triton X-100, 1 mM EDTA; anti-Flag agarose, 4°C, 1 h; blot against RFP

B1: TANGO2 isoform 1-Flag (TANGO2.Iso1-Flag), purified (natural protein, human, UniProt Q6ICL3-1 1-276, looked up)
chain: MCIIFFKFDPRPVSKNAYRLILAANRDEFYSRPSKLADFWGNNNEILSGLDMEEGKEGGTWLGISTRGKLAALTNYLQPQLDWQARGRGELVTHFLTTDVDSLSYLKKVSMEGHLYNGFNLIAADLSTAKGDVICYYGNRGEPDPIVLTPGTYGLSNALLETPWRKLCFGKQLFLEAVERSQALPKDVLIASLLDVLNNEEAQLPDPAIEDQGGEYVQPMLSKYAAVCVRCPGYGTRTNTIILVDADGHVTFTERSMMDKDLSHWETRTYEFTLQS
notes: TANGO2 isoform 1, human, UniProt Q6ICL3-1; C-terminal in-frame fusion with the Flag peptide; also called TANGO2.Flag; purified TANGO2
binding: binds
